Data on one molecule can be found in publication PMC9431724.

Chains of the proteins cited; added tags and fusions are not shown.
UniProt P35222: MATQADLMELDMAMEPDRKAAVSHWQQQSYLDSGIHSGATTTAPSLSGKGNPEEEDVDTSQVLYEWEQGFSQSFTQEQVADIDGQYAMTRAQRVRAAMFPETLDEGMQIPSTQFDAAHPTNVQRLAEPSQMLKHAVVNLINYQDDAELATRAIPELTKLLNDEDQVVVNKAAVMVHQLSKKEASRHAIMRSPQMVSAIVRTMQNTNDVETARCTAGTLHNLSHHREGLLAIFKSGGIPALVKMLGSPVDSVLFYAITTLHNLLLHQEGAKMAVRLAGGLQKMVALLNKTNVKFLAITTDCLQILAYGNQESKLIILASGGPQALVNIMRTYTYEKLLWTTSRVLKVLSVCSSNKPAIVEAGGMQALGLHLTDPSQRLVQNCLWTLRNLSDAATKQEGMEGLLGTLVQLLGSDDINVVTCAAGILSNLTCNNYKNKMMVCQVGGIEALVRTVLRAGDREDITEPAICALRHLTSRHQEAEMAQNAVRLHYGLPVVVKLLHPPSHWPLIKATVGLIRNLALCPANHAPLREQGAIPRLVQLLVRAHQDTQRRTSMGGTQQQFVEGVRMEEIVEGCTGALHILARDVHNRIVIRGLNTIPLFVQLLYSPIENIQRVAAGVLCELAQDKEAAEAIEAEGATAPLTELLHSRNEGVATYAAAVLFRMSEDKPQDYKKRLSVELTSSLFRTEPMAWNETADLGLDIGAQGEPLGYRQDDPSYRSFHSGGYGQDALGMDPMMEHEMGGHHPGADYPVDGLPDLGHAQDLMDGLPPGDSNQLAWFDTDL

Test [1] has as its target T1, HA-VE-cadherin (vascular endothelial-cadherin, CDH5), overexpressed (UniProt P33151).
T1 sequence: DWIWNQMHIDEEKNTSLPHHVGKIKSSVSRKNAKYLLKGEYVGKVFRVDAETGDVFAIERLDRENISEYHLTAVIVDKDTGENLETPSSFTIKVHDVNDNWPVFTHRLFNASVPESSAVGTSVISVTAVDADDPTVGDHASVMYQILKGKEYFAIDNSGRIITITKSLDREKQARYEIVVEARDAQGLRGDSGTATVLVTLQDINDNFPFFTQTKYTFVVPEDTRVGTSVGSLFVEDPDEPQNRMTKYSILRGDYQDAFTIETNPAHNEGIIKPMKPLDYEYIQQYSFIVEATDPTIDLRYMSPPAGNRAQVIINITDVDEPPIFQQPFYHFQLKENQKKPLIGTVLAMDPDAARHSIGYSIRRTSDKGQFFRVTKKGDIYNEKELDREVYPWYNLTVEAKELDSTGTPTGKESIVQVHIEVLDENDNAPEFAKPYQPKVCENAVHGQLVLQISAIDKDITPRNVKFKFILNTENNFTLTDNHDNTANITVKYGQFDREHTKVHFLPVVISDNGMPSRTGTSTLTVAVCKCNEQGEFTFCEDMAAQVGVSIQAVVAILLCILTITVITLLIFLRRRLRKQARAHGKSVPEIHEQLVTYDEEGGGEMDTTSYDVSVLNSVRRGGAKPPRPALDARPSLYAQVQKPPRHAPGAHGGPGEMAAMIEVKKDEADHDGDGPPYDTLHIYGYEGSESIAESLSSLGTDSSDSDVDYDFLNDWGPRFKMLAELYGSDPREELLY
In words: co-IP; FLAG-p120 (WT, variant or empty vector) with overexpressed HA-VE-cadherin or endogenous β-catenin, Western blot; which protein was precipitated is not told in the main text. (A western blot detects proteins with antibodies after separation by electrophoresis.)

Test [2] has as its target endogenous β-catenin (CTNNB1) (human (endogenous in HEK293T; the cells are told for Figure 9A only)) (UniProt P35222). Described as above.

Results are given in words; binding and its absence hold for the method and conditions named. In cells and extracts the contact can be indirect. Some entries that bind do so weakly or less than the wild type. Sequences can lack the tags named with a protein.

B1: FLAG-p120 wild type (p120-catenin, encoded by CTNND1) (protein, UniProt O60716-1 1-968)
chain: MDDSEVESTASILASVKEQEAQFEKLTRALEEERRHVSAQLERVRVSPQDANPLMANGTLTRRHQNGRFVGDADLERQKFSDLKLNGPQDHSHLLYSTIPRMQEPGQIVETYTEEDPEGAMSVVSVETSDDGTTRRTETTVKKVVKTVTTRTVQPVAMGPDGLPVDASSVSNNYIQTLGRDFRKNGNGGPGPYVGQAGTATLPRNFHYPPDGYSRHYEDGYPGGSDNYGSLSRVTRIEERYRPSMEGYRAPSRQDVYGPQPQVRVGGSSVDLHRFHPEPYGLEDDQRSMGYDDLDYGMMSDYGTARRTGTPSDPRRRLRSYEDMIGEEVPSDQYYWAPLAQHERGSLASLDSLRKGGPPPPNWRQPELPEVIAMLGFRLDAVKSNAAAYLQHLCYRNDKVKTDVRKLKGIPVLVGLLDHPKKEVHLGACGALKNISFGRDQDNKIAIKNCDGVPALVRLLRKARDMDLTEVITGTLWNLSSHDSIKMEIVDHALHALTDEVIIPHSGWEREPNEDCKPRHIEWESVLTNTAGCLRNVSSERSEARRKLRECDGLVDALIFIVQAEIGQKDSDSKLVENCVCLLRNLSYQVHREIPQAERYQEAAPNVANNTGPHAASCFGAKKGKDEWFSRGKKPIEDPANDTVDFPKRTSPARGYELLFQPEVVRIYISLLKESKTPAILEASAGAIQNLCAGRWTYGRYIRSALRQEKALSAIADLLTNEHERVVKAASGALRNLAVDARNKELIGKHAIPNLVKNLPGGQQNSSWNFSEDTVISILNTINEVIAENLEAAKKLRETQGIEKLVLINKSGNRSEKEVRAAALVLQTIWGYKELRKPLEKEGWKKSDFQVNLNNASRSQSSHSYDDSTLPLIDRNQKSDKKPDREEIQMSNMGSNTKSLDNNYSTPNERGDHNRTLDRSGDLGDMEPLKGTTPLMQDEGQESLEEELDVLVLDDEGGQVSYPSMQKI
On to B1, for which the binding result in test [1] and in test [2] was “binds” throughout.
